Measurements published in PMC4306142, “Structure of mycobacterial maltokinase, the missing link in the essential GlgE-pathway” (Scientific Reports, 2015).
These are yes or no findings as the source states them, for the method shown.

By UniProt entry, the sequences of proteins in these tests, tags left out.
UniProt A1TH50: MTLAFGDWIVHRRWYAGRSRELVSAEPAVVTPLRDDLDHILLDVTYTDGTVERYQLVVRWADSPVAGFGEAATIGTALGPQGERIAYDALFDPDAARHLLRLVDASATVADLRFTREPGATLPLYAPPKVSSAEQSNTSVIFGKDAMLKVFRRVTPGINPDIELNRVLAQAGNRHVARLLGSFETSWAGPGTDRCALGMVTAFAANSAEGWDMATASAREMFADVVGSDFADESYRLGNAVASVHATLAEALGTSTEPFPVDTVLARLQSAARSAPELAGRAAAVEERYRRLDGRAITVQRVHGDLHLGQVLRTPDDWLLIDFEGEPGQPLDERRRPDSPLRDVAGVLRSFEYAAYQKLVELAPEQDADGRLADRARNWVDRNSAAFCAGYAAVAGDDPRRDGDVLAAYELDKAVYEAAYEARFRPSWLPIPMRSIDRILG

Target: Mycobacterium vanbaalenii maltokinase (Mak^Mvan) (Mycobacterium vanbaalenii PYR-1) (UniProt A1TH50)
Experiment: SEC; Superdex 12 10/300 GL column; fractions pooled after HisPrep and Resource Q, in 50 mM BTP pH 7.4, 50 mM NaCl; both purified

Mycobacterium vanbaalenii maltokinase (Mak^Mvan) (from UniProt A1TH50 1-441) (enzyme)
binding: no binding
